Measured data: PubChem BioAssay AID652259 (Drosophila RNAi Screening Center, 2013)
Screen: 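Knock-downs that push a Wingless-driven reporter up or down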 (primary screen). Cells: Drosophila clone 8 imaginal disc epithelial cells. Reagents: long dsRNA against Drosophila genes. Treatment: pathway stimulated by co-transfected Wingless expression plasmid. Measured: 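Dual luciferase reads per well after Wingless plasmid stimulation: reporter firefly light and Renilla control light; activity is firefly divided by Renilla, a ratio not deposited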. Scale: firefly reporter light: higher = more Wg reporter light, before normalisation; Renilla control light: higher = more transfected or surviving cells. Rule for the call: 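a knock-down is a candidate when at least two out of four statistical tests show it departing from its plate mean; one test alone signals a weak candidate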. Meaning of the calls: active = candidate regulator (raises or lowers reporter); inactive = not a candidate.
The screen tested about 22,000 reagents; shown is a random part of those that have a named target and a result. In the full data, 233 (1.1%) were called active. 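Light values are raw, unnormalised plate reads; the ratio scores behind the reporter calls were not deposited.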 Unmarked entries are inactive. Reagents against one gene are numbered here. A plus sign joins genes that one reagent is predicted to hit. No sequences are given here. Not given: the amount of reagent, the time to read-out, the dose of the treatment.

Target gene	reagent no.	reporter change call, replicate 1	firefly reporter light, replicate 1	firefly reporter light, replicate 2	Renilla control light, replicate 1	Renilla control light, replicate 2
CG32006	1		4.83e5	3.33e5	2.70e5	1.29e5
casp	1		8870		3787	
CG4281	1		3872	7240	1185	2978
CG18324	1		11776		3288	
alphaTub85E	1		8037		1760	
witty	1		3136	8981	1365	4244
witty	2		5.19e5	5.84e5	3.03e5	2.65e5
CG10435	1		7605		1920	
UQCR-14	1		22721		9872	
Mst84B	1		16468		4045	
MED22	1		17130		11671	
GrlHz	1		10108		2604	
ND-MLRQ	1		3815		1817	
CG13810	1		10262		4160	
CG13810	2		5.34e5	5.74e5	2.61e5	3.02e5
Rubicon	1		16344		7369	
CG7044	1		14651		3956	
Apl	1		9480		4119	
fit	1		43348		9232	
DCTN6-p27	1		4440	13843	1161	4448
DCTN6-p27	2		4.97e5	5.06e5	2.21e5	2.83e5
CG2186	1		3453	9787	921	2448
CG7071 + Muted	1		31732		4963	
Rpn12R	1		5298		2881	
CG3528	1		3163	7419	746	2141
Npc1a	1		2272	4576	896	2082
Sbp2	1		4861		2082	
Cyp4d14	1		20797		15371	
vari	1		2489	8083	813	2256
CG33252	1		4048		1552	
CG12716	1		25312		14784	
CG32069 + Blos2	1		5041		2192	
CG4646	1		6982		2583	
CG12766	1		6459		3958	
CG18787 + CG18789	1	Wg reporter activity raised (active)	5507	7792	713	1680
Ptr	1		2993	8547	930	2520
Ptr	2		4.17e5	4.33e5	1.80e5	1.40e5
CG18641	1		2071	7715	898	2744
eag	1		4392		1530	
eag	2		17904		8604	
CG9643	1		2065	8354	924	2049
Naa60	1		7468		2551	

6 entries from above in another layout.
Target gene | reagent no. | reporter change call, replicate 1 | firefly reporter light, replicate 1 | firefly reporter light, replicate 2 | Renilla control light, replicate 1 | Renilla control light, replicate 2
GrlHz | 1 | – | 10108 | – | 2604 | –
ND-MLRQ | 1 | – | 3815 | – | 1817 | –
CG13810 | 1 | – | 10262 | – | 4160 | –
CG13810 | 2 | – | 5.34e5 | 5.74e5 | 2.61e5 | 3.02e5
Rubicon | 1 | – | 16344 | – | 7369 | –
CG7044 | 1 | – | 14651 | – | 3956 | –

The listing continues:
Target gene	reagent no.	reporter change call, replicate 1	firefly reporter light, replicate 1	firefly reporter light, replicate 2	Renilla control light, replicate 1	Renilla control light, replicate 2
ppk20	1		5602		2388	
CG9344	1		4947	11690	752	3085
Cont	1		7648		2648	
Gbp3	1		15325		13192	
Alms1b + Alms1a	1		3058	6480	1528	1818
CG17048	1	Wg reporter activity lowered (active)	5962		4599	
CG13220	1		7346		2997	
CG32376	1		4.46e5	3.39e5	1.82e5	47338
Muc68D	1		3113		1813	
CG34198	1		15473		8348	
rho-4	1		4290	12932	1168	4054
rho-4	2		20365		11234	
CG31109	1		18482		17068	
Idh3g	1		17872		14531	
Sr-CII	1		5040		2209	
CG11617	1		5212	8507	1936	3826
CG11617	2		5.87e5	6.75e5	2.49e5	2.27e5
CG7542	1		4028		2400	
CG16719	1		4316		1211	
CG14073	1		6560		2087	
CNBP	1		1846	6307	747	3610
CNBP	2		16172		5255	
CNBP	3		4.63e5	6.30e5	2.18e5	1.90e5
CG34398	1		29158	9.03e5	18039	5.33e5
CG34398	2		4123	10018	1063	2150
CG34398	3		10405		3078	
CG34398	4		2258	8391	1252	2775
Rab19	1		1472	10373	1056	4125
Rs1	1		8237		2598	
bab2	1		2980		1557	
bab2	2		3161		822	
